# Data as given in PubChem BioAssay AID493014 (National Center for Advancing Translational Sciences (NCATS), 2011).
# Some of the results follow. Shown are side measurements of this screen, not its main read-out; they come without a call. Compounds called inactive in the main read-out are mostly missing here. Words in brackets tell the shape of the fitted curve; partial curves, single points and poor fits give uncertain potencies.
# Assay: qHTS Assay to Find Inhibitors of Chronic Active B-Cell Receptor Signaling
# Conditions: ABC-DLBCL IkBa-CBG/CBR reporter, luminescence ratio (green luciferase fused to IkBa over red control in TMD8 lymphoma cells), 4 h
# In short: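 Compounds up to 46 uM were incubated four hours with TMD8 cells whose green CBG68 luciferase is fused to IkappaBalpha; red CBR luminescence normalised the signal, and concentration-effect curves were fitted to fusion, red and ratio data.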
# [1] = measured here: CBR red luminescence, cell number
# [2] = measured here: IkBa-CBG green luminescence
Structure (SMILES),AC50 [1],AC50 [2]
COc1ccccc1-n1ccnc(SCC(=O)NC2CCCC2)c1=O,"1.64 µM [falling, partial curve, poor fit]",–
COc1ccc(OC)c(NC(=O)COC(=O)C2CCN(C(=O)c3ccc(Cl)cc3)CC2)c1,"15.8 µM [rising, single point]",–
COc1ccc2c(c1)CC/C2=N\NC(=O)c1ccccc1,"20.6 µM [falling, partial curve]",–
CCOC(=O)[C@@H]1[C@H]2COc3ccc(Br)cc3[C@H]2N2C(=O)N(c3ccc(C(F)(F)F)cc3)C(=O)[C@]12C,"23.1 µM [falling, partial curve]",–
CCc1ccc(NC(=S)N(CCCN2CCN(C)CC2)Cc2cccs2)cc1,"25.9 µM [falling, single point]",–
CN(/N=C/c1ccc(Cl)cc1)c1ncc(Cl)cc1C(F)(F)F,"12.6 µM [rising, single point]",–
O=C(Cn1cccc1)Nc1ccc(F)cc1F,"3.16 µM [falling, single point]",–
O=C(CSc1c2c(nc3ccccc13)CCCC2)NCc1ccco1,"4.47 µM [falling, full curve]",–
CC(C)(C)c1cc(-c2nc(N)nc(N)n2)c(O)c(C(C)(C)C)c1,"11.6 µM [rising, partial curve]",–
CCn1c([N+](=O)[O-])nc2c1c(=O)[nH]c(=O)n2C,"10 µM [falling, partial curve]","5.62 µM [falling, single point]"
COc1ccc(N2CCN(C(c3nnnn3C3CCCC3)C(C)C)CC2)cc1 (configuration not stated),"12.6 µM [rising, partial curve]",–
N#CC1=C(N)NC(SCc2ccccc2)=C(C#N)C12CCCC2,–,"18.4 µM [falling, single point]"
CC1(C(=O)Nc2nnc(C(C)(C)C)s2)Cc2ccccc2C(=O)O1 (configuration not stated),"3.16 µM [falling, single point]",–
COc1ccc(CCNc2ncnc3c2[nH]c2cc(OC)c(OC)cc23)cc1OC,"17.8 µM [falling, single point]",–
CCCc1nc2ccccc2c(C(=O)OC(C)C(=O)NCc2ccc3c(c2)OCO3)c1CC (configuration not stated),"29.1 µM [falling, single point]",–
Cc1ccc(NC(=O)/C=C2\NC(=O)CS2)cc1,"11.2 µM [falling, partial curve, poor fit]",–
O=C(CN(C(=O)CNC(=O)c1ccco1)c1ccc(F)c(Cl)c1)NC1CCCCC1,"1.78 µM [rising, partial curve, poor fit]",–
CN(C)CCn1c2c(c(SCC(=O)NCc3ccccc3)nc1=O)CCCC2,"25.9 µM [falling, single point]",–
CCN(CC)S(=O)(=O)c1ccc(Oc2ccc(S(=O)(=O)N(CC)CC)cc2)cc1,"3.66 µM [falling, single point]",–
COCCNC(=O)/C(C#N)=c1\s/c(=C\c2ccccc2OC(F)F)c(=O)n1Cc1ccccc1,"35.5 µM [falling, single point]",–
C=C(C)Cn1c(-c2ccc(OC)cc2)nc2ccccc21,"28.2 µM [falling, single point]",–
O=C(c1ccc(Cl)cc1)N1CCCCC(Sc2nnc(-c3ccc4c(c3)OCO4)o2)C1=O (configuration not stated),"4.11 µM [falling, partial curve, poor fit]",–

Structure (SMILES),AC50 [1],AC50 [2]
Nc1nnnn1/N=C/C(Br)=C/c1ccccc1,"35.5 µM [falling, single point]","2.82 µM [falling, partial curve, poor fit]"
COCCCn1c(-c2ccc(S(=O)(=O)N3CCOCC3)cc2)csc1=Nc1ccccc1,"23.1 µM [rising, single point]",–
CCNC(=O)c1cc2c(=O)n3cccc(C)c3nc2n(Cc2ccc(C)cc2)c1=N,"5.62 µM [falling, single point]",–
NC(=O)CNCCC(c1ccccc1)c1ccccc1,"5.8 µM [falling, single point]",–
CC1CC1C(=O)Nc1ccc(-c2ccccc2)cc1 (configuration not stated),"29.1 µM [falling, single point]",–
O=C(Nc1nnc(SCc2cccc(F)c2)s1)c1ccco1,"7.08 µM [rising, partial curve, poor fit]",–
Cc1cnc(C(=O)Nc2ccc3c(c2)CCC3)cn1,"2.51 µM [rising, full curve, poor fit]",–
O=S(=O)(/N=S1/CC=CCN1S(=O)(=O)c1ccccc1)c1ccccc1 (configuration not stated),"5.8 µM [falling, partial curve, poor fit]",–
CC1=CC(=O)C=C(C)C1=NOc1ccccc1[N+](=O)[O-],–,"20.6 µM [falling, single point]"
Cc1[nH]nc(SCC(=O)NC2CCCCC2)c1[N+](=O)[O-],"11.2 µM [falling, partial curve]",–
COc1ccccc1NC(=O)C(=O)NCc1ccccc1Cl,"0.0058 µM [falling, full curve]",–
COc1ccc(NC(=O)COC(=O)c2c3c(nc4ccccc24)CCCC3)cc1,"2 µM [falling, full curve, poor fit]",–
Cc1ccc2c(c1)c1c(n2CC(O)Cn2nc(C)c(Br)c2C)C(=O)CCC1 (configuration not stated),"1.46 µM [rising, partial curve, poor fit]",–
CS(=O)(=O)N1CCN(c2cnn(-c3ccccc3)c(=O)c2Cl)CC1,"3.98 µM [falling, full curve]",–
CCOC(=O)c1c(NC(=O)CSc2nnc(CNc3ccc(F)cc3)o2)sc(C)c1C,"20 µM [falling, partial curve]",–
COc1ccc2c(c1)c(/C=N/Nc1nc3ccccc3[nH]1)c(C)n2C,–,"17.8 µM [falling, partial curve, poor fit]"
CC(=O)/C=C/c1ccc2ccccc2n1,"2.82 µM [falling, full curve, poor fit]",–
Cc1c(CC(Cl)(Cl)Cl)c2c(n1O)CC(C)(C)CC2=O,"16.4 µM [falling, single point]",–
O=C(Nc1ccc(Nc2ccccc2)cc1)C(Cl)Cl,"2.91 µM [rising, full curve, poor fit]",–
CCOC(=O)Cn1nnc(-c2ccc(SC)cc2)n1,"9.2 µM [rising, single point]",–
CSc1ccccc1NC(=O)c1cc(-c2ccco2)on1,"6.31 µM [falling, partial curve]",–
CCOC(=O)c1c(C)[nH]c(N=Nc2ccc(C)cc2)c1C,"23.1 µM [rising, partial curve, poor fit]",–

Structure (SMILES),AC50 [1],AC50 [2]
Cc1ccc(SC(c2ccccc2)C(Cn2cncn2)C(=O)c2ccccc2)cc1 (configuration not stated),"29.1 µM [falling, single point]",–
Cc1ccc(CNC(=O)c2cccc(-n3cnnn3)c2)cc1,"20.6 µM [rising, partial curve, poor fit]",–
C#CCOC(=O)c1ccc(-n2cncn2)nc1,"29.1 µM [falling, single point]",–
Cc1nc2c3cc(F)ccc3n(CCN3CCCCC3)c2s1,–,"15.8 µM [falling, single point]"
Cn1c(=O)c2c(nc(N3CCOCC3)n2CCCNC2=NCCCCC2)n(C)c1=O,"0.82 µM [falling, full curve, poor fit]",–
Cc1cccc(OCC(=O)NC(=S)Nc2ccccc2N2CCOCC2)c1C,"20 µM [falling, single point]",–
O=C(NCCC1=CCCCC1)c1ccc(-n2cncn2)cc1,"32.6 µM [rising, single point]",–
Cc1ccc(-n2nnnc2C(Cl)c2nnnn2-c2ccc(C)cc2)cc1,"29.1 µM [falling, single point]",–
COc1ccc(N2CCN(C(=O)COCc3cc(-c4ccc5c(c4)OCO5)on3)CC2)cc1,"25.1 µM [falling, single point]",–
O=C1C(Cl)=C(NCC2CCCO2)C(=O)N1C1CCCCC1 (configuration not stated),"10 µM [falling, partial curve, poor fit]",–
O=C(NCC1([N+](=O)[O-])CN(C(=O)c2ccccc2)CN(C(=O)c2ccccc2)C1)c1ccccc1,"35.5 µM [rising, partial curve, poor fit]",–
Cc1cccc(NC(=O)CNC(=O)c2cccs2)n1,"14.6 µM [falling, partial curve]",–
COc1ccccc1C(=O)NNC(=O)c1cccc(O)c1,"10 µM [falling, partial curve]",–
O=C(NCCCN1CCCC1=O)c1cccc(Oc2ccccc2)c1,"3.98 µM [rising, full curve, poor fit]",–
COc1ccc(CNC(=O)C/C(C)=N/NC(=O)c2ccc([N+](=O)[O-])cc2Cl)cc1,"5.01 µM [falling, full curve, poor fit]",–
COc1ccc(S(=O)(=O)N2CCOC23CCN(S(=O)(=O)c2ccc(C)cc2)CC3)cc1,"1.16 µM [falling, partial curve, poor fit]",–
Cc1c(C(=O)OCC(=O)N2CC(=O)Nc3ccccc32)oc2ccccc12,"9.2 µM [rising, partial curve, poor fit]",–
COc1ccc(CNC(=O)c2cc3c(s2)CS(=O)C3)cc1 (configuration not stated),"2.06 µM [rising, full curve, poor fit]",–
CCCCCCc1cc2cc(C(=O)Nc3ccccc3)c(=O)oc2cc1O,"18.4 µM [falling, partial curve]",–
CCCn1c(SC(C)C(=O)NCC2CCCO2)nc2cc(Cl)ccc2c1=O (configuration not stated),"13 µM [falling, partial curve, poor fit]","4.61 µM [rising, full curve, poor fit]"

# Structural class, the compounds so far containing bromine.
Structure (SMILES),AC50 [1],AC50 [2]
CCOC(=O)[C@@H]1[C@H]2COc3ccc(Br)cc3[C@H]2N2C(=O)N(c3ccc(C(F)(F)F)cc3)C(=O)[C@]12C,"23.1 µM [falling, partial curve]",–
Nc1nnnn1/N=C/C(Br)=C/c1ccccc1,"35.5 µM [falling, single point]","2.82 µM [falling, partial curve, poor fit]"
Cc1ccc2c(c1)c1c(n2CC(O)Cn2nc(C)c(Br)c2C)C(=O)CCC1 (configuration not stated),"1.46 µM [rising, partial curve, poor fit]",–
